The numbers were not newly measured in patent US20060165683A1, “Methods and compositions for control of bone formation via modulation of sympathetic tone” (priority 2001, published 2006), which cites them from elsewhere.

For the data set, the system named is ovariectomized rat. The following applies: cited from earlier work.

Molecules are shown by their SMILES.

Turning to `COc1ccc(CC(C)NCC(O)c2ccc(O)c(NC=O)c2)cc1` (stereo not shown) [formoterol], the effects in bone entry is recorded as “Anabolic effects”.
